# Measurements: the supplement of paper PMC8728848
# This is one part of the list.
# Tests used:
# Assay in all cases: glycan array binding signal (z-score within array); higher = stronger binding
# Conditions in all cases: glycan notation: IUPAC condensed, linker removed
# [1] = target: Man(a1-2)Man(a1-3)[Man(a1-2)Man(a1-6)]Man
# Summary of the method: (§1)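 Negative Z-scores can be read as non-binding. The Z-score is calculated within each array and then averaged across arrays of one protein sequence at different concentrations or buffers and across linkers. Arrays, 3228 in all, were curated from the Consortium for Functional Glycomics database and kept only where the protein sequence was available.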
# [2] = target: Man(a1-2)Man(a1-3)[Man(a1-2)Man(a1-6)]Man(a1-6)[Man(a1-2)Man(a1-2)Man(a1-3)]Man
# Summary of the method: as §1
# [3] = target: Man(a1-2)Man(a1-3)[Man(a1-2)Man(a1-6)]Man(a1-6)[Man(a1-2)Man(a1-2)Man(a1-3)]Man(b1-4)GlcNAc(b1-4)GlcNAc
# Summary of the method: as §1
# [4] = target: Man(a1-2)Man(a1-3)[Man(a1-6)]Man(a1-6)[Man(a1-2)Man(a1-3)]Man(b1-4)GlcNAc(b1-4)GlcNAc
# Summary of the method: as §1
# [5] = target: Man(a1-2)Man(a1-6)[Man(a1-3)]Man(a1-6)[Man(a1-2)Man(a1-2)Man(a1-3)]Man
# Summary of the method: as §1
# [6] = target: Man(a1-2)Man(a1-6)[Man(a1-3)]Man(a1-6)[Man(a1-2)Man(a1-2)Man(a1-3)]Man(b1-4)GlcNAc(b1-4)GlcNAc
# Summary of the method: as §1
# [7] = target: Man(a1-3)[Man(a1-6)]Man
# Summary of the method: as §1
# [8] = target: Man(a1-3)[Man(a1-6)]Man(a1-6)[Man(a1-2)Man(a1-3)]Man(b1-4)GlcNAc(b1-4)GlcNAc
# Summary of the method: as §1
# [9] = target: Man(a1-3)[Man(a1-6)]Man(a1-6)[Man(a1-3)]Man
# Summary of the method: as §1
# [10] = target: Man(a1-3)[Man(a1-6)]Man(a1-6)[Man(a1-3)]Man(b1-4)GlcNAc(b1-4)GlcNAc
# Summary of the method: as §1
# [11] = target: Man(a1-3)[Man(a1-6)]Man(b1-4)GlcNAc(b1-4)GlcNAc
# Summary of the method: as §1
# [12] = target: Man(a1-3)[Man(a1-6)]Man(b1-4)GlcNAc(b1-4)[Fuc(a1-6)]GlcNAc
# Summary of the method: as §1
# [13] = target: Man(a1-6)Man
# Summary of the method: as §1
# [14] = target: Man(b1-4)GlcNAc
# Summary of the method: as §1
# [15] = target: MurNAc(b1-4)GlcNAc
# Summary of the method: as §1
# [16] = target: Neu5Ac(a2-3)Gal
# Summary of the method: as §1
# [17] = target: Neu5Ac(a2-3)Gal(b1-3)GalNAc
# Summary of the method: as §1
# [18] = target: Neu5Ac(a2-3)Gal(b1-3)GalNAc(b1-3)Gal(a1-4)Gal(b1-4)Glc
# Summary of the method: as §1
# [19] = target: Neu5Ac(a2-3)Gal(b1-3)GalNAc(b1-4)Gal(b1-4)Glc
# Summary of the method: as §1
# [20] = target: Neu5Ac(a2-3)Gal(b1-3)GalNAc(b1-4)[Neu5Ac(a2-3)]Gal(b1-4)Glc
# Summary of the method: as §1
# [21] = target: Neu5Ac(a2-3)Gal(b1-3)GalNAc(b1-4)[Neu5Ac(a2-8)Neu5Ac(a2-3)]Gal(b1-4)Glc
# Summary of the method: as §1
# [22] = target: Neu5Ac(a2-3)Gal(b1-3)GalNAc6S
# Summary of the method: as §1
# [23] = target: Neu5Ac(a2-3)Gal(b1-3)GlcNAc
# Summary of the method: as §1
# [24] = target: Neu5Ac(a2-3)Gal(b1-3)GlcNAc(b1-2)Man
# Summary of the method: as §1
# [25] = target: Neu5Ac(a2-3)Gal(b1-3)GlcNAc(b1-2)Man(a1-3)[GlcNAc(b1-4)][Neu5Ac(a2-3)Gal(b1-3)GlcNAc(b1-2)Man(a1-6)]Man(b1-4)GlcNAc(b1-4)GlcNAc
# Summary of the method: as §1
# [26] = target: Neu5Ac(a2-3)Gal(b1-3)GlcNAc(b1-2)Man(a1-3)[Neu5Ac(a2-3)Gal(b1-3)GlcNAc(b1-2)Man(a1-6)]Man(b1-4)GlcNAc(b1-4)GlcNAc
# Summary of the method: as §1
# [27] = target: Neu5Ac(a2-3)Gal(b1-3)GlcNAc(b1-2)[Neu5Ac(a2-3)Gal(b1-3)GlcNAc(b1-4)]Man(a1-6)[Neu5Ac(a2-3)Gal(b1-3)GlcNAc(b1-2)Man(a1-3)]Man(b1-4)GlcNAc(b1-4)GlcNAc
# Summary of the method: as §1
# [28] = target: Neu5Ac(a2-3)Gal(b1-3)GlcNAc(b1-3)Gal(b1-3)GlcNAc
# Summary of the method: as §1
# [29] = target: Neu5Ac(a2-3)Gal(b1-3)GlcNAc(b1-3)Gal(b1-4)GlcNAc
# Summary of the method: as §1
# [30] = target: Neu5Ac(a2-3)Gal(b1-3)GlcNAc(b1-3)GalNAc
# Summary of the method: as §1
# [31] = target: Neu5Ac(a2-3)Gal(b1-3)GlcNAc(b1-6)GalNAc
# Summary of the method: as §1
# [32] = target: Neu5Ac(a2-3)Gal(b1-3)GlcNAc6S
# Summary of the method: as §1
# [33] = target: Neu5Ac(a2-3)Gal(b1-3)[Fuc(a1-4)]GlcNAc
# Summary of the method: as §1
# [34] = target: Neu5Ac(a2-3)Gal(b1-3)[Fuc(a1-4)]GlcNAc(b1-3)Gal(b1-3)[Fuc(a1-4)]GlcNAc
# Summary of the method: as §1
# [35] = target: Neu5Ac(a2-3)Gal(b1-3)[Fuc(a1-4)]GlcNAc(b1-3)Gal(b1-4)[Fuc(a1-3)]GlcNAc
# Summary of the method: as §1
# [36] = target: Neu5Ac(a2-3)Gal(b1-3)[GlcNAc(b1-6)]GalNAc
# Summary of the method: as §1
# [37] = target: Neu5Ac(a2-3)Gal(b1-3)[Neu5Ac(a2-6)]GalNAc
# Summary of the method: as §1
# [38] = target: Neu5Ac(a2-3)Gal(b1-3)[Neu5Ac(a2-6)]GlcNAc(b1-3)[Fuc(a1-3)[Gal(b1-4)]GlcNAc(b1-6)]Gal(b1-4)Glc
# Summary of the method: as §1
# [39] = target: Neu5Ac(a2-3)Gal(b1-3)]Neu5Ac(a2-3)Gal(b1-4)]GlcNAc
# Summary of the method: as §1
# [40] = target: Neu5Ac(a2-3)Gal(b1-4)Glc
# Summary of the method: as §1
# [41] = target: Neu5Ac(a2-3)Gal(b1-4)GlcNAc
# Summary of the method: as §1
# [42] = target: Neu5Ac(a2-3)Gal(b1-4)GlcNAc(b1-2)Man
# Summary of the method: as §1
# [43] = target: Neu5Ac(a2-3)Gal(b1-4)GlcNAc(b1-2)Man(a1-3)[GlcNAc(b1-4)][Neu5Ac(a2-3)Gal(b1-4)GlcNAc(b1-2)Man(a1-6)]Man(b1-4)GlcNAc(b1-4)GlcNAc
# Summary of the method: as §1
# [44] = target: Neu5Ac(a2-3)Gal(b1-4)GlcNAc(b1-2)Man(a1-3)[Neu5Ac(a2-3)Gal(b1-4)GlcNAc(b1-2)Man(a1-6)]Man(b1-4)GlcNAc(b1-4)GlcNAc
# Summary of the method: as §1
# [45] = target: Neu5Ac(a2-3)Gal(b1-4)GlcNAc(b1-2)Man(a1-3)[Neu5Ac(a2-3)Gal(b1-4)GlcNAc(b1-2)Man(a1-6)]Man(b1-4)GlcNAc(b1-4)[Fuc(a1-6)]GlcNAc
# Summary of the method: as §1
binder,measurement,setting,value
"OS9-MRH (Homo sapiens), Q13438 (protein) IPELLSPMRDAPCLLKTKDWWTYEFCYGRHIQQYHMEDSEIKGEVLYLGYYQSAFDWDDETAKASKQHRLKRYHSQTYGNGSKCDLNGRPREAEVRFLCDEGAGISGDYIDRVDEPLSCSYVLTIRTPRLCPHPLLRPPPSAAPQAI",glycan array binding signal (z-score),[1],-0.512
same,glycan array binding signal (z-score),[2],-0.853
same,glycan array binding signal (z-score),[3],-0.637
same,glycan array binding signal (z-score),[4],-1.58
same,glycan array binding signal (z-score),[5],-0.992
same,glycan array binding signal (z-score),[6],0.421
same,glycan array binding signal (z-score),[7],1.42
same,glycan array binding signal (z-score),[8],-0.387
same,glycan array binding signal (z-score),[9],0.835
same,glycan array binding signal (z-score),[10],0.612
same,glycan array binding signal (z-score),[11],-0.235
same,glycan array binding signal (z-score),[12],0.549
same,glycan array binding signal (z-score),[13],-0.075
same,glycan array binding signal (z-score),[14],-0.365
same,glycan array binding signal (z-score),[15],0.08
same,glycan array binding signal (z-score),[16],-0.905
same,glycan array binding signal (z-score),[17],0.336
same,glycan array binding signal (z-score),[18],0.348
same,glycan array binding signal (z-score),[19],0.484
same,glycan array binding signal (z-score),[20],-0.741
same,glycan array binding signal (z-score),[21],-0.974
same,glycan array binding signal (z-score),[22],0.458
same,glycan array binding signal (z-score),[23],0.365
same,glycan array binding signal (z-score),[24],0.732
same,glycan array binding signal (z-score),[25],-1.14
same,glycan array binding signal (z-score),[26],-0.126
same,glycan array binding signal (z-score),[27],-0.384
same,glycan array binding signal (z-score),[28],-0.627
same,glycan array binding signal (z-score),[29],0.383
same,glycan array binding signal (z-score),[30],-0.634
same,glycan array binding signal (z-score),[31],-0.755
same,glycan array binding signal (z-score),[32],-0.543
same,glycan array binding signal (z-score),[33],0.861
same,glycan array binding signal (z-score),[34],0.54
same,glycan array binding signal (z-score),[35],0.737
same,glycan array binding signal (z-score),[36],1.34
same,glycan array binding signal (z-score),[37],0.248
same,glycan array binding signal (z-score),[38],-0.321
same,glycan array binding signal (z-score),[39],1.16
same,glycan array binding signal (z-score),[40],-0.307
same,glycan array binding signal (z-score),[41],-0.978
same,glycan array binding signal (z-score),[42],-1.27
same,glycan array binding signal (z-score),[43],-2.15
same,glycan array binding signal (z-score),[44],0.453
same,glycan array binding signal (z-score),[45],0.192

# 10 successive records already listed:
binder,measurement,setting,value
"OS9-MRH (Homo sapiens), Q13438 (protein) IPELLSPMRDAPCLLKTKDWWTYEFCYGRHIQQYHMEDSEIKGEVLYLGYYQSAFDWDDETAKASKQHRLKRYHSQTYGNGSKCDLNGRPREAEVRFLCDEGAGISGDYIDRVDEPLSCSYVLTIRTPRLCPHPLLRPPPSAAPQAI",glycan array binding signal (z-score),[21],-0.974
same,glycan array binding signal (z-score),[22],0.458
same,glycan array binding signal (z-score),[23],0.365
same,glycan array binding signal (z-score),[24],0.732
same,glycan array binding signal (z-score),[25],-1.14
same,glycan array binding signal (z-score),[26],-0.126
same,glycan array binding signal (z-score),[27],-0.384
same,glycan array binding signal (z-score),[28],-0.627
same,glycan array binding signal (z-score),[29],0.383
same,glycan array binding signal (z-score),[30],-0.634
